Test results from the supplement of paper PMC12067093, “Discovery and optimisation of a covalent ligand for TRIM25 and its application to targeted protein ubiquitination” (Chemical Science, 2025).
Some of the results follow.

Compound: Cc1cc(ccc1-c1ccccc1)C(=O)N1CCCN(CC1)C(=O)CCl [compound 10]
Experiment: probe-labelled cysteine peptide fold change vs DMSO (competition) (log2 fold change); higher = less target engagement (more negative = stronger competition)
Details: THP-1, incubation time: 4 h
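Also: competitive profiling in live THP-1 cells: cysteine peptides tagged with an iodoacetamide desthiobiotin (IA-DTB) probe, intensity after compound treatment relative to DMSO-treated cells.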

Row | Target | probe-labelled cysteine peptide fold change (10 µM) | probe-labelled cysteine peptide fold change (50 µM)
1 | COPA_P53621_1148_ILSACEK (UniProt P53621) | 0.0749 | -0.0454
2 | COPE_O14579_212+225_CSPTLLLLNGQAACHMAQGR (UniProt O14579) | -0.254 | -0.429
3 | CNP_P09543_252_RPPGVLHCTTK (UniProt P09543) | -0.1 | -0.246
4 | COPG2_Q9UBF2_296_ELAPAVSVLQLFCSSPK (UniProt Q9UBF2) | 0.112 | 0.0808
5 | COL4A3BP_Q9Y5P4_529_KIPALTENDPETWIVCNFSVDHDSAPLNNR (UniProt Q9Y5P4) | 0.164 | 0.0849
6 | COIL_P38432_126_AFQLEEGEETEPDCK (UniProt P38432) | 0.0772 | -0.122
7 | CNOT1_A5YKK6_2359_LFQSVAQCCMGQK (UniProt A5YKK6) | 0.135 | -0.247
8 | CNBP_P62633_97+101_EQCCYNCGKPGHLAR (UniProt P62633) | 0.0258 | -0.446
9 | CNP_P09543_335_AHITLGCAADVEAVQTGLDLLEILR (UniProt P09543) | -0.562 | 0.3
10 | COPG2_Q9UBF2_280_NKHEMVIYEAASAIIHLPNCTAR (UniProt Q9UBF2) | -0.131 | 0.256
11 | COMTD1_Q86VU5_45_EQCLLPPEDSR (UniProt Q86VU5) | -0.125 | -0.294
12 | CNST_Q6PJW8_439_SKTEPLISPGCDR (UniProt Q6PJW8) | -0.0395 | -0.108
13 | COPA_P53621_693_LGEVALLQGNHQIVEMCYQR (UniProt P53621) | -0.0967 | -0.076
14 | COMMD9_Q9P000_47_KLLDVTCSSLSVTQEEAEELLQALHR (UniProt Q9P000) | 0.293 | -0.214
15 | COG5_Q9UP83_64_ELLQDGCYSDFLNEDFDVK (UniProt Q9UP83) | -0.0605 | -0.267
16 | COG1_Q8WTW3_87_ATDQYCAR (UniProt Q8WTW3) | -0.109 | -0.128
17 | COPA_P53621_85_CLFTLLGHLDYIR (UniProt P53621) | -0.0366 | 0.456
18 | COPG1_Q9Y678_440+446_ETGLSHLCEFIEDCEFTVLATR (UniProt Q9Y678) | 0.135 | 0.0846
19 | COL4A3BP_Q9Y5P4_185_YFDACADAVSKDELQR (UniProt Q9Y5P4) | 0.0339 | -0.287

Single records, from the list above.
COL4A3BP_Q9Y5P4_185_YFDACADAVSKDELQR (UniProt Q9Y5P4) reads probe-labelled cysteine peptide fold change (10 µM) = 0.0339; probe-labelled cysteine peptide fold change (50 µM) = -0.287
COMTD1_Q86VU5_45_EQCLLPPEDSR (UniProt Q86VU5) reads probe-labelled cysteine peptide fold change (10 µM) = -0.125; probe-labelled cysteine peptide fold change (50 µM) = -0.294
COPA_P53621_693_LGEVALLQGNHQIVEMCYQR (UniProt P53621) reads probe-labelled cysteine peptide fold change (10 µM) = -0.0967; probe-labelled cysteine peptide fold change (50 µM) = -0.076

(continued)

Row | Target | probe-labelled cysteine peptide fold change (10 µM) | probe-labelled cysteine peptide fold change (50 µM)
20 | COMT_P21964_119_IVDAVIQEHQPSVLLELGAYCGYSAVR (UniProt P21964) | 0.0566 | 0.0296
21 | COG4_Q9H9E3_310_YLQVECDR (UniProt Q9H9E3) | 0.0654 | 0.161
22 | CNBP_P62633_161_CGESGHLAR (UniProt P62633) | 0.118 | 0.129
23 | COPA_P53621_522_KLDALCNIHENIR (UniProt P53621) | -0.0301 | 0.0637
24 | COG3_Q96JB2_363_ELLLGPSIACTVAELTSQNNRDHCALVR (UniProt Q96JB2) | 0.16 | 0.126
25 | COG8_Q96MW5_165_HTEILEILEIPQLMDTCVR (UniProt Q96MW5) | 0.0366 | 0.124
26 | COL4A3BP_Q9Y5P4_84_AVITPHDFDECRFDISVNDSVWYLR (UniProt Q9Y5P4) | -0.152 | -0.0783
27 | CNOT1_A5YKK6_1541_YCDPVVLTYQAER (UniProt A5YKK6) | -0.216 | -0.0345
28 | COL4A3BP_Q9Y5P4_84_AVITPHDFDECR (UniProt Q9Y5P4) | 0.179 | 0.232
29 | COG2_Q14746_36_EDFDVDHFVSDCR (UniProt Q14746) | 0.0716 | 0.262
30 | CNBP_P62633_67_DCDLQEDACYNCGR (UniProt P62633) | 0.0676 | 
31 | COPB2_P35606_190_GVNCIDYYSGGDKPYLISGADDR (UniProt P35606) | -0.00395 | 0.000653
32 | COG5_Q9UP83_716_LAADFAQMELAVGPFCR (UniProt Q9UP83) | 0.0536 | 0.0957
33 | COPE_O14579_148_ALHQGDSLECTAMTVQILLK (UniProt O14579) | 0.323 | 0.0262
34 | COMT_P21964_207_YLPDTLLLEECGLLRK (UniProt P21964) | 0.000836 | -0.204
35 | COG2_Q14746_415_FREIAGSLEAALTDVLEDAPAESPYCLLASHR (UniProt Q14746) | 0.306 | 0.352
36 | CNOT6L_Q96LI5_283_KHVDGCAIFFK (UniProt Q96LI5) | -0.0295 | -0.239
37 | CNBP_P62633_97_EQCCYNCGK (UniProt P62633) | 0.0238 | 0.328
38 | CNTN1_Q12860_158_GMVLLCDPPYHFPDDLSYR (UniProt Q12860) | -0.0707 | -0.277
